# Results are given in words; binding and its absence hold for the method and conditions named. In cells and extracts the contact can be indirect. Some entries that bind do so weakly or less than the wild type.
# By UniProt entry, the sequences of proteins in these tests, tags left out. Where a name states a change or a piece, a line headed by the entry shows the natural chain unless it says otherwise. Chains listed by the source or under a name are the forms on record and can include a tag or linker. Residues count along the entry.
# UniProt P57678: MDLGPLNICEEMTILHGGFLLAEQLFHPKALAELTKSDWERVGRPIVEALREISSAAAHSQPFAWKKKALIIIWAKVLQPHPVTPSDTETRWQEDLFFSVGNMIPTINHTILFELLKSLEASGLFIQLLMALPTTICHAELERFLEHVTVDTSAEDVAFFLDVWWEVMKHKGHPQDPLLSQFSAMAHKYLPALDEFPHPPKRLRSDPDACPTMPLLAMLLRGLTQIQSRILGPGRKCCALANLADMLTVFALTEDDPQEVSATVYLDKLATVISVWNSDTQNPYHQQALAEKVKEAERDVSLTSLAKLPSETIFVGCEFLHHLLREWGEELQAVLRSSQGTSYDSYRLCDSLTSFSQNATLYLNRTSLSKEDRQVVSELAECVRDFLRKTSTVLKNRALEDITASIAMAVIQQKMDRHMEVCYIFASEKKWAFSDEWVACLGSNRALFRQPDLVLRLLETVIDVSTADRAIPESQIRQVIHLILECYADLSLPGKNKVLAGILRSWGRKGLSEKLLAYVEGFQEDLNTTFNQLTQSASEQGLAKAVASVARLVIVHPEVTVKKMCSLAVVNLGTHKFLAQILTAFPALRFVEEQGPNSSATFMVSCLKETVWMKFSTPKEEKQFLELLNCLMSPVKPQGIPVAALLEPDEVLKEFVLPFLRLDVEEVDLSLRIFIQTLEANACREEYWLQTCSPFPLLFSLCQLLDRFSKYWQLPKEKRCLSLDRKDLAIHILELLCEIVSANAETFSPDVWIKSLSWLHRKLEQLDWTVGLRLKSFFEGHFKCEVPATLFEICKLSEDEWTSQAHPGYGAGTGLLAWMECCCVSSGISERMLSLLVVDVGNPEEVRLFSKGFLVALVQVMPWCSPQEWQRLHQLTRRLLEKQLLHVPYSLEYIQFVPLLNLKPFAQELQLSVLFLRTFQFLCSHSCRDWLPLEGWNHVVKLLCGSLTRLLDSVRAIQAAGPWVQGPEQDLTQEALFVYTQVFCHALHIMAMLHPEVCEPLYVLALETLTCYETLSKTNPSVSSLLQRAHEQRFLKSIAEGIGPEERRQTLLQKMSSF
# GST-tagged Gemin4 (amino acids 1-370): residues 1-370 of P57678
# UniProt Q96RR4: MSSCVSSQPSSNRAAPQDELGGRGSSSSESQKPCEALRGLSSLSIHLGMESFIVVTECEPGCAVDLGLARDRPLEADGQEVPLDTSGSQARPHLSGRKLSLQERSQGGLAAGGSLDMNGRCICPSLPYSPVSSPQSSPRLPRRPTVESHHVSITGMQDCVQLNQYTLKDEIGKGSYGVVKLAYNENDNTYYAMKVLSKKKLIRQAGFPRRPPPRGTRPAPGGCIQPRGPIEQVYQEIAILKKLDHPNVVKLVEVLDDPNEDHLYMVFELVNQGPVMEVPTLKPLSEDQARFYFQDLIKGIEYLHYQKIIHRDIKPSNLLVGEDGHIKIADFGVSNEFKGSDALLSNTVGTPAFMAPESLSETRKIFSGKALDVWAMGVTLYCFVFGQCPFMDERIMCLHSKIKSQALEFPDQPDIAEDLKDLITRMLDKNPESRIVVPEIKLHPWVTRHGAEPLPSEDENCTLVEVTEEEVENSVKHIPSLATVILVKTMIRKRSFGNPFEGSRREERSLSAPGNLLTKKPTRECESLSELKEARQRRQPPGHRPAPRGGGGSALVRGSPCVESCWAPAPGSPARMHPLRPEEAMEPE
# UniProt Q9UHI6: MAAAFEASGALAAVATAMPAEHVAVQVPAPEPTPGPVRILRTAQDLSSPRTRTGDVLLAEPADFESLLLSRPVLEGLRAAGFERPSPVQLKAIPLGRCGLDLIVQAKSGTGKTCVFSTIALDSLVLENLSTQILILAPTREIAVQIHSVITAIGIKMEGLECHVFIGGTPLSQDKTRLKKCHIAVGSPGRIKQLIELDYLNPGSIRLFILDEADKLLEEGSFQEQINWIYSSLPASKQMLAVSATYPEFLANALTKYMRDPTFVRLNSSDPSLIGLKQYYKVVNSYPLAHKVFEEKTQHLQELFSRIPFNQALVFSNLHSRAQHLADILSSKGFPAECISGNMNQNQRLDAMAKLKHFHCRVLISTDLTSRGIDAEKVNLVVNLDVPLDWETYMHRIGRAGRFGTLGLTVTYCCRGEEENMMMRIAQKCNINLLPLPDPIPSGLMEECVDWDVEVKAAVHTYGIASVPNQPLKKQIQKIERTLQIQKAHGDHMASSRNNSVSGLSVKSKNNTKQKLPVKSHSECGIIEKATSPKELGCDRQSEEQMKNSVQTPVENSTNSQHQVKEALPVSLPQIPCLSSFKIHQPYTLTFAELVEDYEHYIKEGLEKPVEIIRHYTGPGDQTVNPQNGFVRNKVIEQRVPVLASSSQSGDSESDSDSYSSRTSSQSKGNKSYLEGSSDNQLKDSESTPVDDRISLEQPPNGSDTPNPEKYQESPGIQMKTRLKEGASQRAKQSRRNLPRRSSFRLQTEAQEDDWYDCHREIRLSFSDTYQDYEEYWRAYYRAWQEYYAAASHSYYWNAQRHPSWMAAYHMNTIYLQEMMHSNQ
# Key:
# [1] = target: Gemin4, endogenous in LNCaP cells (human (endogenous in LNCaP)) (UniProt P57678); experiment: co-IP; IPs of Gemin/SMN-1, -3, -4, CaMKK2 looked for in the precipitates (Supplementary Fig. 1); cells not given
# [2] = target: GST-tagged Gemin4 (amino acids 1-370) (UniProt P57678); experiment: pull-down; recombinant GST-tagged Gemin4 (aa 1-370) or equal amount of GST incubated with LNCaP cell lysate; CaMKK2 detected by western blot; only the target purified
# [3] = target: T1, Control peptide from the N-terminus of Gemin4 (amino acids 78-86), biotinylated; experiment: pull-down; biotinylated peptide as bait (Pierce Biotinylated Protein Interaction Kit, avidin/streptavidin) with LNCaP cell lysate, steady state or 24 h 10 nM R1881 or ethanol; western blot; only the target purified
# T1 sequence (peptide, biotin): LQPHPVTPS
# [4] = target: Calcium/calmodulin-dependent protein kinase kinase 2 (CaMKK2), endogenous in LNCaP cells (human (endogenous in LNCaP)) (UniProt Q96RR4); experiment: co-IP; endogenous CaMKK2 IP (2.5 µg CaMKK2 antibody, 500 µg pre-cleared LNCaP lysate, overnight 4 °C, Protein A Dynabeads); control IgG; western blot for Gemin proteins
Substance,binding [1],binding [2],binding [3],binding [4]
"Calcium/calmodulin-dependent protein kinase kinase 2 (CaMKK2), endogenous in LNCaP cells (from UniProt Q96RR4 1-588)",binds,binds,no binding,
"Gemin4, endogenous in LNCaP cells (from UniProt P57678 1-1058)",,,no binding,binds
"Gemin3/DDX20, endogenous in LNCaP cells (from UniProt Q9UHI6 1-824)",,,no binding,
